In the assay the target is T1, Flag-Arc WT (Flag-hArc/Arg3.1) (human) (UniProt Q7LC44).
T1 sequence: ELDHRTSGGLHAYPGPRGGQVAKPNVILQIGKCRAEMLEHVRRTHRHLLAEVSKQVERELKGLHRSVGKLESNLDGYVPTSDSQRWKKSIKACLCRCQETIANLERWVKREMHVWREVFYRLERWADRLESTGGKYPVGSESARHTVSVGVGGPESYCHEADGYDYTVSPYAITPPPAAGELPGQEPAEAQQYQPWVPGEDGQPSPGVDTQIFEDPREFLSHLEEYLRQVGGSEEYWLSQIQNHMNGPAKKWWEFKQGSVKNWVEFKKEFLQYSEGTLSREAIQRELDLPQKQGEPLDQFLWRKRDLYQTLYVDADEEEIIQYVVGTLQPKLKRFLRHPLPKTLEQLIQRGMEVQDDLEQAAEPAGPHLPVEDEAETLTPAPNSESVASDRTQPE
As to the kind of experiment: affinity purification with mass spectrometry.

Sequences of proteins named here, by UniProt entry; tags and fusion partners are left off.
UniProt Q16643: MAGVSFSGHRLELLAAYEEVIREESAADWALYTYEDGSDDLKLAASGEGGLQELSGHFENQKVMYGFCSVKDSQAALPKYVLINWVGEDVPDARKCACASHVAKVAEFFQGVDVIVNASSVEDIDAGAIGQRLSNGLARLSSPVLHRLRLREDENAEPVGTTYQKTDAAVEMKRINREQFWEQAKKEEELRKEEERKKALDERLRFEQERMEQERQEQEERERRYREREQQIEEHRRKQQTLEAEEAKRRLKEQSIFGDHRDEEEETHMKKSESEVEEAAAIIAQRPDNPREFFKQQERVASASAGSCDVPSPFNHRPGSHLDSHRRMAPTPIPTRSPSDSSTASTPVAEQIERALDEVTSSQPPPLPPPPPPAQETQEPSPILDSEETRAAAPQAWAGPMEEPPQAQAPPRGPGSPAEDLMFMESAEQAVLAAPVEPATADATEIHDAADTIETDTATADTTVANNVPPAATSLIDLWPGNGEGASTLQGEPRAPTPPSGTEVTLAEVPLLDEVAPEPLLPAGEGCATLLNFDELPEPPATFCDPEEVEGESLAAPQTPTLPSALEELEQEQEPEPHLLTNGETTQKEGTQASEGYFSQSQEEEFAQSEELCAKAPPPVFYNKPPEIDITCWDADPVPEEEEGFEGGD
UniProt P04792: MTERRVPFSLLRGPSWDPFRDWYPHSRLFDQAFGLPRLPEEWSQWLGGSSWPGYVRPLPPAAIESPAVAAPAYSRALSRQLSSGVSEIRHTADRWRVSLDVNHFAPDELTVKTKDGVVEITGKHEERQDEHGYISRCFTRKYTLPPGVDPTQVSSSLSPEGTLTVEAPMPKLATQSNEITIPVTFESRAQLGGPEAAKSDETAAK

No constants are given. Whether binding was seen depends on the method and setting. Binding seen in cells or lysates may run through a third protein. These calls come from enrichment with a bait or labelling near it, and not all partners need be listed. Sequences can lack the tags named with a protein.

This passage reports binding results from doi:10.1101/2025.07.20.665809 (bioRxiv, 2025).

On to Drebrin (from UniProt Q16643 1-649), for which the binding entry was “binds”.

As for “Hsp27, endogenous in HEK293T cells (from UniProt P04792 1-205)”, the binding result was “binds”.

B1: Upf1 (protein, UniProt Q92900 1-1129)
chain: MSVEAYGPSSQTLTFLDTEEAELLGADTQGSEFEFTDFTLPSQTQTPPGGPGGPGGGGAGGPGGAGAGAAAGQLDAQVGPEGILQNGAVDDSVAKTSQLLAELNFEEDEEDTYYTKDLPIHACSYCGIHDPACVVYCNTSKKWFCNGRGNTSGSHIVNHLVRAKCKEVTLHKDGPLGETVLECYNCGCRNVFLLGFIPAKADSVVVLLCRQPCASQSSLKDINWDSSQWQPLIQDRCFLSWLVKIPSEQEQLRARQITAQQINKLEELWKENPSATLEDLEKPGVDEEPQHVLLRYEDAYQYQNIFGPLVKLEADYDKKLKESQTQDNITVRWDLGLNKKRIAYFTLPKTDSGNEDLVIIWLRDMRLMQGDEICLRYKGDLAPLWKGIGHVIKVPDNYGDEIAIELRSSVGAPVEVTHNFQVDFVWKSTSFDRMQSALKTFAVDETSVSGYIYHKLLGHEVEDVIIKCQLPKRFTAQGLPDLNHSQVYAVKTVLQRPLSLIQGPPGTGKTVTSATIVYHLARQGNGPVLVCAPSNIAVDQLTEKIHQTGLKVVRLCAKSREAIDSPVSFLALHNQIRNMDSMPELQKLQQLKDETGELSSADEKRYRALKRTAERELLMNADVICCTCVGAGDPRLAKMQFRSILIDESTQATEPECMVPVVLGAKQLILVGDHCQLGPVVMCKKAAKAGLSQSLFERLVVLGIRPIRLQVQYRMHPALSAFPSNIFYEGSLQNGVTAADRVKKGFDFQWPQPDKPMFFYVTQGQEEIASSGTSYLNRTEAANVEKITTKLLKAGAKPDQIGIITPYEGQRSYLVQYMQFSGSLHTKLYQEVEIASVDAFQGREKDFIILSCVRANEHQGIGFLNDPRRLNVALTRARYGVIIVGNPKALSKQPLWNHLLNYYKEQKVLVEGPLNNLRESLMQFSKPRKLVNTINPGARFMTTAMYDAREAIIPGSVYDRSSQGRPSSMYFQTHDQIGMISAGPSHVAAMNIPIPFNLVMPPMPPPGYFGQANGPAAGRGTPKGKTGRGGRQKNRFGLPGPSQTNLPNSQASQDVASQPFSQGALTQGYISMSQPSQMSQPGLSQPELSQDSYLGDEFKSQIDVALSQDSTYQGERAYQHGGVTGLSQY
Regarding B1, the binding result is reported as “binds”.
